Test results as given in US6764837.
No constants are given. Whether binding was seen depends on the method and setting. Some entries that bind do so weakly or less than the wild type.

Chains of the proteins cited; added tags and fusions are not shown. Lines headed by an entry give the natural chain unless they say otherwise; changes in a name come on top.
UniProt P0A8V2: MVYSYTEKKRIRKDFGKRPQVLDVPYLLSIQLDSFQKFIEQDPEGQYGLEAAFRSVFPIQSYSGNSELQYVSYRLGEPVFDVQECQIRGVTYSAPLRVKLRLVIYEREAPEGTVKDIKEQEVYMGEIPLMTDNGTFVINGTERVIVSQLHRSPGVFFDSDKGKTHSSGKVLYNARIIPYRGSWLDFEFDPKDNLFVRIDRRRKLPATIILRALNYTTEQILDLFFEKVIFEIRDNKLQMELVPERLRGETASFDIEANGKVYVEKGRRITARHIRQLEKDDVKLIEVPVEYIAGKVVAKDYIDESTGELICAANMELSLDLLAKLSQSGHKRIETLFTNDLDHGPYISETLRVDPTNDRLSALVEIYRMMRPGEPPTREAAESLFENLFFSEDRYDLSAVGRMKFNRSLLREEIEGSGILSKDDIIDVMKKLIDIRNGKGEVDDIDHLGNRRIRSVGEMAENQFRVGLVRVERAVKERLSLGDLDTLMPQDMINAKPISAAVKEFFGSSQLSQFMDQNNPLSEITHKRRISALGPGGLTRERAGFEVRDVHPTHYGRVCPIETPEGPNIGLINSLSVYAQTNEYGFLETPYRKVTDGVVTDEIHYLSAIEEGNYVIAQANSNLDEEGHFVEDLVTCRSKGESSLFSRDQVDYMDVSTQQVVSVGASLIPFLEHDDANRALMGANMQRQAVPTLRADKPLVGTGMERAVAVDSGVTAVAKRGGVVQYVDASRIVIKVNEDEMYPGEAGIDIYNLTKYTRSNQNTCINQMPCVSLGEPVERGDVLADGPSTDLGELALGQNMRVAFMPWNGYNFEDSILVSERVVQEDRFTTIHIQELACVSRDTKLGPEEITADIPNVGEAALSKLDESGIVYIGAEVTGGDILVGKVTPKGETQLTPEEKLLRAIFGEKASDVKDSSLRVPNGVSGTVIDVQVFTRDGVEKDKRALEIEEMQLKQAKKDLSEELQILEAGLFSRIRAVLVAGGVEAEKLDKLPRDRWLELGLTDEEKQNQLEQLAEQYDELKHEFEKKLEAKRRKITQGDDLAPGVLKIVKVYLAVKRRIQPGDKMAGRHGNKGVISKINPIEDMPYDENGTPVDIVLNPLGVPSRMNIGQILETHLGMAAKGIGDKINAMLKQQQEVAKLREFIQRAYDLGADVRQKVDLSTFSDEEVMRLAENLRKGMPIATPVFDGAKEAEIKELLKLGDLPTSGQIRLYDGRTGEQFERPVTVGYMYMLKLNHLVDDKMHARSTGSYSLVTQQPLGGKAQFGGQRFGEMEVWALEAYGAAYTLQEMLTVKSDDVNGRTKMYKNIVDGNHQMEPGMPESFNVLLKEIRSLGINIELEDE
UniProt P00579: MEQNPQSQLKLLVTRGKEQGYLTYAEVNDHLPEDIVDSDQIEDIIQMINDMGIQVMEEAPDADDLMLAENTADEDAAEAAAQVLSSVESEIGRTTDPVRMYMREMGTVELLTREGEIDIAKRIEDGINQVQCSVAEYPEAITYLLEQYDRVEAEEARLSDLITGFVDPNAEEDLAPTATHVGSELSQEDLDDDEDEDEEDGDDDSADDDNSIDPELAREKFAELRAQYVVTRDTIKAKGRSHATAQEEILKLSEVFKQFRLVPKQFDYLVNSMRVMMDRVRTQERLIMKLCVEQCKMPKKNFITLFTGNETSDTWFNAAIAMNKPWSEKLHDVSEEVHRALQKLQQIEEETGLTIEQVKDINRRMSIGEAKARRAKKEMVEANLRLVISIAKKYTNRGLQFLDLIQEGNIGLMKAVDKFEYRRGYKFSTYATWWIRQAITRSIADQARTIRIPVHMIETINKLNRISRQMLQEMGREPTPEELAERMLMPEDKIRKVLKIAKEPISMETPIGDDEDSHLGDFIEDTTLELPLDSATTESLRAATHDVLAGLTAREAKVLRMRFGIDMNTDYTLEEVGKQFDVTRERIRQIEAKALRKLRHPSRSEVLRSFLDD
UniProt P0A8T7: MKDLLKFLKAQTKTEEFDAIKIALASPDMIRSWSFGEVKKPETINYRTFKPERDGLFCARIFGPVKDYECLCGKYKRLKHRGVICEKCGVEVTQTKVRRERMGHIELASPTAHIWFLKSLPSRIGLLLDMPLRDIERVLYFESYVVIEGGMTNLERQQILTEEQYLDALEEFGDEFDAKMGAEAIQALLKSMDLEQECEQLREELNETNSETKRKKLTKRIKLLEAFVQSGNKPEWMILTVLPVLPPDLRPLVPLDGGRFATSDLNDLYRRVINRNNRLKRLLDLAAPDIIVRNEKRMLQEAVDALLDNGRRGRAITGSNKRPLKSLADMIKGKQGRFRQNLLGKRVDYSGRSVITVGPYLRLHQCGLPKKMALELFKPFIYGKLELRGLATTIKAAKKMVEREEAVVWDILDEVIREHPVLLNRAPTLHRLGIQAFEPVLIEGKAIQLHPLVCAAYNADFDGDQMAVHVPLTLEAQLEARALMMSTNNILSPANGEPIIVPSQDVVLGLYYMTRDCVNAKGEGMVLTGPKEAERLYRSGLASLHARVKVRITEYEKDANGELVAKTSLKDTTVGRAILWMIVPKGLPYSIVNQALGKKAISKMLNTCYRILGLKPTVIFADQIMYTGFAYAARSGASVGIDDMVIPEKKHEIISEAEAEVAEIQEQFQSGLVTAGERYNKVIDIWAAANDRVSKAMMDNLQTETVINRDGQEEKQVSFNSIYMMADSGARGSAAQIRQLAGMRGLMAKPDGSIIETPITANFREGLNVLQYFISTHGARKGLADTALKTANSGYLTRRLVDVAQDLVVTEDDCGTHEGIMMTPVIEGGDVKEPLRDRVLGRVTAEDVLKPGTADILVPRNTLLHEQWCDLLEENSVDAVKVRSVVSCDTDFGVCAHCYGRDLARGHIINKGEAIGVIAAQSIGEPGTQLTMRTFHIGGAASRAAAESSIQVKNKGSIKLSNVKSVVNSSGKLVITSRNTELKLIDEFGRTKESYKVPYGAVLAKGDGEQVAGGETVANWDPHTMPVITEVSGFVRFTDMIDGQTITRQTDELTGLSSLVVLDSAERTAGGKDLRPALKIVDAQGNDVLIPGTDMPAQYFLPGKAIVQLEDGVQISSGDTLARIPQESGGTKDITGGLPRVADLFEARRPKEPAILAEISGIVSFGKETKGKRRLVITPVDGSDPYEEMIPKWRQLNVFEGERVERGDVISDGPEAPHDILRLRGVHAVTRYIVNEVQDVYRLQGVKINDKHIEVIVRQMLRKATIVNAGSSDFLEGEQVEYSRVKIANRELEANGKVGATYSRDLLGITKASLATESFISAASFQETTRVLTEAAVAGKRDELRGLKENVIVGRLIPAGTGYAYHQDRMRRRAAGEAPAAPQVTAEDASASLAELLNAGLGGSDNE
UniProt A1AGI6: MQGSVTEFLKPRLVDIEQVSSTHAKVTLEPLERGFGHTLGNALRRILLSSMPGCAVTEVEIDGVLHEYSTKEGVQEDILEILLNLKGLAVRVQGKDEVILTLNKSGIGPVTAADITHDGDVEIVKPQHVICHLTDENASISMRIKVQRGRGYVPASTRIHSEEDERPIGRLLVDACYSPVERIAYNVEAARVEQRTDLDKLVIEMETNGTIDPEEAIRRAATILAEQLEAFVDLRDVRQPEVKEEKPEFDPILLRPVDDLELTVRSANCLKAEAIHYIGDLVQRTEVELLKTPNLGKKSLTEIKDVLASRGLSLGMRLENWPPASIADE

Key:
[1] = target: E. coli RNA polymerase β subunit (Escherichia coli) (UniProt P0A8V2); experiment: in vitro reconstitution of RNAP, SDS-PAGE (FIG. 4A)
[2] = target: E. coli RNA polymerase σ70 subunit (Escherichia coli) (UniProt P00579); experiment: as above
[3] = target: E. coli RNA polymerase β′ subunit (Escherichia coli) (UniProt P0A8T7); experiment: as above
[4] = target: E. coli RNA polymerase β subunit (Escherichia coli) (UniProt P0A8V2); experiment: in vitro reconstitution of RNAP, sizing column, SDS-PAGE (FIG. 4A)
[5] = target: E. coli RNA polymerase σ70 subunit (Escherichia coli) (UniProt P00579); experiment: as above
[6] = target: E. coli RNA polymerase β′ subunit (Escherichia coli) (UniProt P0A8T7); experiment: as above

Measured: binding

His-tagged RpoA (α subunit of RNA polymerase) of E. coli (from UniProt A1AGI6 1-329)
binds: [1] | [2] | [3] | [4] | [5] | [6]
